Measured values from patent publication US20250176599A1, “FLAVOR COMPOSITION AND FOOD AND BEVERAGE” (TAKASAGO INTERNATIONAL CORPORATION, priority 2021, published 2025).

How the values were obtained:
[1] = Sensory evaluation of aqueous solution I containing (E)-2-nonenal 1 ppb: off-flavor intensity and masking component intensity; conditions: average score 0-4
Procedure: (§1) In ion-exchanged water, each degradation component was added to achieve the concentrations listed in Table 1, and aqueous solutions I to VI containing these degradation components were prepared.
(§2) For the aforementioned aqueous solutions containing degradation components, nootkatone was added at the concentrations listed in Table 2 to confirm the intensity of the off-flavor (masking effect) in each sample and the intensity of the masking component itself (the impact on the flavor of the food and/or beverage itself).
(§3) The test was conducted as follows. Eight experienced panelists were selected to conduct a sensory evaluation. The intensity of the off-flavor of the aqueous solution containing the degradation components derived from unsaturated fatty acids, without added masking components, was set as “Evaluation: 4.” The ion-exchanged water free of any degradation components was set as “Evaluation: 0.” The intensity of the off-flavor (masking effect) of each sample was then relatively evaluated according to the following evaluation criteria.
(§4) • Off-flavor is strongly sensed: 4 points • Off-flavor is sensed: 3 points • Off-flavor is slightly sensed: 2 points • Off-flavor is barely sensed: 1 point • Off-flavor is not sensed at all: 0 points
(§5) Also, the intensity of the masking components (impact on the flavor of the food and/or beverage itself) was absolutely evaluated according to the following evaluation criteria.
(§6) • Masking component is strongly sensed: 4 points • Masking component is sensed: 3 points • Masking component is slightly sensed: 2 points • Masking component is barely sensed: 1 point • Masking component is not sensed at all: 0 points

[2] = Sensory evaluation of aqueous solution II containing (E)-2-octenal 10 ppb: off-flavor intensity and masking component intensity; conditions: average score 0-4
Procedure: as §1, §2, §3, §4, §5, §6

[3] = Sensory evaluation of aqueous solution IV containing 1,5-octadien-3-one 100 ppt: off-flavor intensity and masking component intensity; conditions: aqueous solution IV, 1,5-octadien-3-one 100 ppt, average score 0-4
Procedure: as §1, §2, §3, §4, §5, §6

[4] = Sensory evaluation of aqueous solution V containing 1-octen-3-ol 10 ppb: off-flavor intensity and masking component intensity; conditions: average score 0-4
Procedure: as §1, §2, §3, §4, §5, §6

## CCCCCCCC/C=C\CCCCCCCC(=O)O [Oleic Acid, oleic acid]
[1]; 1 ppm added
  Masking Component Intensity: 2.3 points
[1]; 5 ppm added
  Masking Component Intensity: 2.9 points
[1]; 10 ppb added
  Masking Component Intensity: 0.8 points
[1]; 10 ppm added
  Masking Component Intensity: 3.9 points
[1]; 50 ppb added
  Masking Component Intensity: 1.1 points
[1]; 100 ppb added
  Masking Component Intensity: 1.6 points
[1]; 500 ppb added
  Masking Component Intensity: 1.9 points
[2]; 1 ppm added
  Masking Component Intensity: 2.3 points
[2]; 5 ppm added
  Masking Component Intensity: 3.1 points
[2]; 10 ppb added
  Masking Component Intensity: 0.6 points
[2]; 10 ppm added
  Masking Component Intensity: 3.5 points
[2]; 50 ppb added
  Masking Component Intensity: 0.9 points
[2]; 100 ppb added
  Masking Component Intensity: 1.3 points
[2]; 500 ppb added
  Masking Component Intensity: 1.5 points
[3]; 1 ppm added
  Masking Component Intensity: 1.8 points
[3]; 5 ppm added
  Masking Component Intensity: 2.0 points
[3]; 10 ppb added
  Masking Component Intensity: 0.1 points
[3]; 10 ppm added
  Masking Component Intensity: 2.8 points
[3]; 50 ppb added
  Masking Component Intensity: 0.5 points
[3]; 100 ppb added
  Masking Component Intensity: 0.6 points
[3]; 500 ppb added
  Masking Component Intensity: 1.0 points
[4]; 1 ppm added
  Masking Component Intensity: 2.4 points
[4]; 5 ppm added
  Masking Component Intensity: 3.3 points
[4]; 10 ppb added
  Masking Component Intensity: 0.5 points
[4]; 10 ppm added
  Masking Component Intensity: 3.9 points
[4]; 50 ppb added
  Masking Component Intensity: 0.8 points
[4]; 100 ppb added
  Masking Component Intensity: 1.4 points
[4]; 500 ppb added
  Masking Component Intensity: 1.5 points

## O=C1CCCCCCCCCCCC(=O)OCCO1 [1,4-Dioxacycloheptadecan-5,17-Dione, 1,4-dioxacycloheptadecan-5,17-dione]
[1]; 0.001 ppt added
  Masking Component Intensity: 0.0 points
[1]; 0.01 ppt added
  Masking Component Intensity: 0.0 points
[1]; 0.1 ppt added
  Masking Component Intensity: 0.1 points
[1]; 1 ppb added
  Masking Component Intensity: 2.1 points
[1]; 1 ppt added
  Masking Component Intensity: 0.5 points
[1]; 10 ppb added
  Masking Component Intensity: 3.3 points
[1]; 10 ppt added
  Masking Component Intensity: 1.0 points
[1]; 100 ppb added
  Masking Component Intensity: 4.0 points
[1]; 100 ppt added
  Masking Component Intensity: 1.8 points
[2]; 0.001 ppt added
  Masking Component Intensity: 0.0 points
[2]; 0.01 ppt added
  Masking Component Intensity: 0.0 points
[2]; 0.1 ppt added
  Masking Component Intensity: 0.3 points
[2]; 1 ppb added
  Masking Component Intensity: 2.1 points
[2]; 1 ppt added
  Masking Component Intensity: 0.5 points
[2]; 10 ppb added
  Masking Component Intensity: 2.8 points
[2]; 10 ppt added
  Masking Component Intensity: 0.6 points
[2]; 100 ppb added
  Masking Component Intensity: 3.9 points
[2]; 100 ppt added
  Masking Component Intensity: 1.5 points
[3]; 0.001 ppt added
  Masking Component Intensity: 0.0 points
[3]; 0.01 ppt added
  Masking Component Intensity: 0.0 points
[3]; 0.1 ppt added
  Masking Component Intensity: 0.0 points
[3]; 1 ppb added
  Masking Component Intensity: 1.3 points
[3]; 1 ppt added
  Masking Component Intensity: 0.3 points
[3]; 10 ppb added
  Masking Component Intensity: 2.0 points
[3]; 10 ppt added
  Masking Component Intensity: 0.5 points
[3]; 100 ppb added
  Masking Component Intensity: 3.8 points
[3]; 100 ppt added
  Masking Component Intensity: 1.0 points
[4]; 0.001 ppt added
  Masking Component Intensity: 0.0 points
[4]; 0.01 ppt added
  Masking Component Intensity: 0.1 points
[4]; 0.1 ppt added
  Masking Component Intensity: 0.3 points
[4]; 1 ppb added
  Masking Component Intensity: 1.9 points
[4]; 1 ppt added
  Masking Component Intensity: 0.6 points
[4]; 10 ppb added
  Masking Component Intensity: 3.0 points
[4]; 10 ppt added
  Masking Component Intensity: 0.9 points
[4]; 100 ppb added
  Masking Component Intensity: 3.9 points
[4]; 100 ppt added
  Masking Component Intensity: 1.5 points

## CCC(=O)/C=C/C1C(C)=CCCC1(C)C (stereo not drawn) [α-Methyl Ionone, α-methyl ionone]
[1]; 0.01 ppt added
  Masking Component Intensity: 0.1 points
[1]; 0.1 ppt added
  Masking Component Intensity: 0.3 points
[1]; 1 ppb added
  Masking Component Intensity: 2.1 points
[1]; 1 ppm added
  Masking Component Intensity: 4.0 points
[1]; 1 ppt added
  Masking Component Intensity: 0.8 points
[1]; 10 ppb added
  Masking Component Intensity: 2.9 points
[1]; 10 ppt added
  Masking Component Intensity: 1.1 points
[1]; 100 ppb added
  Masking Component Intensity: 3.5 points
[1]; 100 ppt added
  Masking Component Intensity: 1.5 points
[2]; 0.01 ppt added
  Masking Component Intensity: 0.4 points
[2]; 0.1 ppt added
  Masking Component Intensity: 0.6 points
[2]; 1 ppb added
  Masking Component Intensity: 1.8 points
[2]; 1 ppm added
  Masking Component Intensity: 4.0 points
[2]; 1 ppt added
  Masking Component Intensity: 0.9 points
[2]; 10 ppb added
  Masking Component Intensity: 2.8 points
[2]; 10 ppt added
  Masking Component Intensity: 1.4 points
[2]; 100 ppb added
  Masking Component Intensity: 3.4 points
[2]; 100 ppt added
  Masking Component Intensity: 1.6 points
[3]; 0.01 ppt added
  Masking Component Intensity: 0.4 points
[3]; 0.1 ppt added
  Masking Component Intensity: 0.5 points
[3]; 1 ppb added
  Masking Component Intensity: 1.5 points
[3]; 1 ppm added
  Masking Component Intensity: 4.0 points
[3]; 1 ppt added
  Masking Component Intensity: 0.8 points
[3]; 10 ppb added
  Masking Component Intensity: 2.4 points
[3]; 10 ppt added
  Masking Component Intensity: 0.9 points
[3]; 100 ppb added
  Masking Component Intensity: 3.0 points
[3]; 100 ppt added
  Masking Component Intensity: 1.3 points
[4]; 0.01 ppt added
  Masking Component Intensity: 0.1 points
[4]; 0.1 ppt added
  Masking Component Intensity: 0.3 points
[4]; 1 ppb added
  Masking Component Intensity: 1.8 points
[4]; 1 ppm added
  Masking Component Intensity: 4.0 points
[4]; 1 ppt added
  Masking Component Intensity: 0.8 points
[4]; 10 ppb added
  Masking Component Intensity: 2.8 points
[4]; 10 ppt added
  Masking Component Intensity: 0.9 points
[4]; 100 ppb added
  Masking Component Intensity: 3.4 points
[4]; 100 ppt added
  Masking Component Intensity: 1.5 points

## CCCC(=O)C(C)=O [2,3-Hexanedione, 2,3-hexanedione]
[1]; 1 ppb added
  Masking Component Intensity: 0.4 points
[1]; 1 ppm added
  Masking Component Intensity: 3.3 points
[1]; 5 ppb added
  Masking Component Intensity: 0.8 points
[1]; 5 ppm added
  Masking Component Intensity: 3.5 points
[1]; 10 ppb added
  Masking Component Intensity: 1.3 points
[1]; 10 ppm added
  Masking Component Intensity: 3.8 points
[1]; 50 ppb added
  Masking Component Intensity: 1.6 points
[1]; 100 ppb added
  Masking Component Intensity: 2.0 points
[1]; 500 ppb added
  Masking Component Intensity: 2.5 points
[2]; 1 ppb added
  Masking Component Intensity: 0.5 points
[2]; 1 ppm added
  Masking Component Intensity: 2.8 points
[2]; 5 ppb added
  Masking Component Intensity: 1.0 points
[2]; 5 ppm added
  Masking Component Intensity: 3.5 points
[2]; 10 ppb added
  Masking Component Intensity: 1.3 points
[2]; 10 ppm added
  Masking Component Intensity: 3.8 points
[2]; 50 ppb added
  Masking Component Intensity: 1.8 points
[2]; 100 ppb added
  Masking Component Intensity: 2.1 points
[2]; 500 ppb added
  Masking Component Intensity: 2.3 points
[3]; 1 ppb added
  Masking Component Intensity: 0.1 points
[3]; 1 ppm added
  Masking Component Intensity: 3.1 points
[3]; 5 ppb added
  Masking Component Intensity: 0.4 points
[3]; 5 ppm added
  Masking Component Intensity: 3.6 points
[3]; 10 ppb added
  Masking Component Intensity: 0.9 points
[3]; 10 ppm added
  Masking Component Intensity: 4.0 points
[3]; 50 ppb added
  Masking Component Intensity: 1.1 points
[3]; 100 ppb added
  Masking Component Intensity: 1.6 points
[3]; 500 ppb added
  Masking Component Intensity: 2.4 points
[4]; 1 ppb added
  Masking Component Intensity: 0.4 points
[4]; 1 ppm added
  Masking Component Intensity: 2.6 points
[4]; 5 ppb added
  Masking Component Intensity: 0.6 points
[4]; 5 ppm added
  Masking Component Intensity: 3.5 points
[4]; 10 ppb added
  Masking Component Intensity: 1.3 points
[4]; 10 ppm added
  Masking Component Intensity: 3.9 points
[4]; 50 ppb added
  Masking Component Intensity: 1.9 points
[4]; 100 ppb added
  Masking Component Intensity: 2.1 points
[4]; 500 ppb added
  Masking Component Intensity: 2.6 points

## C/C=C/C(=O)C1=C(C)C=CCC1(C)C [β-Damascenone, β-damascenone]
[1]; 0.001 ppt added
  Masking Component Intensity: 0.1 points
[1]; 0.01 ppt added
  Masking Component Intensity: 0.8 points
[1]; 0.1 ppt added
  Masking Component Intensity: 1.0 points
[1]; 1 ppb added
  Masking Component Intensity: 2.6 points
[1]; 1 ppt added
  Masking Component Intensity: 1.4 points
[1]; 10 ppb added
  Masking Component Intensity: 3.0 points
[1]; 10 ppt added
  Masking Component Intensity: 1.6 points
[1]; 100 ppb added
  Masking Component Intensity: 3.6 points
[1]; 100 ppt added
  Masking Component Intensity: 2.0 points
[2]; 0.001 ppt added
  Masking Component Intensity: 0.8 points
[2]; 0.01 ppt added
  Masking Component Intensity: 0.9 points
[2]; 0.1 ppt added
  Masking Component Intensity: 1.1 points
[2]; 1 ppb added
  Masking Component Intensity: 3.0 points
[2]; 1 ppt added
  Masking Component Intensity: 1.3 points
[2]; 10 ppb added
  Masking Component Intensity: 3.4 points
[2]; 10 ppt added
  Masking Component Intensity: 1.8 points
[2]; 100 ppb added
  Masking Component Intensity: 3.8 points
[2]; 100 ppt added
  Masking Component Intensity: 2.4 points
[3]; 0.001 ppt added
  Masking Component Intensity: 0.3 points
[3]; 0.01 ppt added
  Masking Component Intensity: 0.4 points
[3]; 0.1 ppt added
  Masking Component Intensity: 0.8 points
[3]; 1 ppb added
  Masking Component Intensity: 2.0 points
[3]; 1 ppt added
  Masking Component Intensity: 1.1 points
[3]; 10 ppb added
  Masking Component Intensity: 3.0 points
[3]; 10 ppt added
  Masking Component Intensity: 1.4 points
[3]; 100 ppb added
  Masking Component Intensity: 3.1 points
[3]; 100 ppt added
  Masking Component Intensity: 1.8 points
[4]; 0.001 ppt added
  Masking Component Intensity: 0.6 points
[4]; 0.01 ppt added
  Masking Component Intensity: 1.0 points
[4]; 0.1 ppt added
  Masking Component Intensity: 1.1 points
[4]; 1 ppb added
  Masking Component Intensity: 3.1 points
[4]; 1 ppt added
  Masking Component Intensity: 1.6 points
[4]; 10 ppb added
  Masking Component Intensity: 3.6 points
[4]; 10 ppt added
  Masking Component Intensity: 1.6 points
[4]; 100 ppb added
  Masking Component Intensity: 3.8 points
[4]; 100 ppt added
  Masking Component Intensity: 2.4 points
